These results are taken from PMC11032447.

Results are given in words; binding and its absence hold for the method and conditions named. Some binding calls cover weakened binding; strength is not graded here. Tags and fused reporters may be left off the sequences shown.

The experiment has as its target His6-tagged GFP-fusion construct carrying the mouse SNAP-25 14-33 peptide as C-terminal tag (mouse). Description: crystal structure; human secretagogin/GFP-SNAP-25 peptide complex; vapor diffusion at 4 °C; 25 mM Tris-HCl pH 8.0, 150 mM NaCl, 2 mM CaCl2; 2.30 Å; P212121, two copies in the asymmetric unit; both purified.

B1: human secretagogin, co-expressed and co-purified with the GFP-SNAP-25 peptide fusion (protein, UniProt O76038 1-276)
chain: MDSSREPTLGRLDAAGFWQVWQRFDADEKGYIEEKELDAFFLHMLMKLGTDDTVMKANLHKVKQQFMTTQDASKDGRIRMKELAGMFLSEDENFLLLFRRENPLDSSVEFMQIWRKYDADSSGFISAAELRNFLRDLFLHHKKAISEAKLEEYTGTMMKIFDRNKDGRLDLNDLARILALQENFLLQFKMDACSTEERKRDFEKIFAYYDVSKTGALEGPEVDGFVKDMMELVQPSISGVDLDKFREILLRHCDVNKDGKIQKSELALCLGLKINP
B1: the binding entry is given as “binds”.
